Measured values as given in paper PMC3422339.

The chains behind the UniProt entries cited, without tags or fusion partners. Where a name states a change or a piece, a line headed by the entry shows the natural chain unless it says otherwise.
UniProt Q84W66: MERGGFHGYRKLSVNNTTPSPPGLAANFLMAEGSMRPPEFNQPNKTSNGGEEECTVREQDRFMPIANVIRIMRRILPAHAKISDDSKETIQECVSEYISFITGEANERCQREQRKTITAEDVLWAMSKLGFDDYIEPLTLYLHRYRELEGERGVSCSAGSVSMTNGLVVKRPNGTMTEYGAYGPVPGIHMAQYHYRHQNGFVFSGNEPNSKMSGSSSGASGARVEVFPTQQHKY

Target: 6His-L1L/AtNF-YB6 HFD (AA 26-118) (Arabidopsis thaliana) (UniProt Q84W66)
Assay: pull-down; co-expression of the HFDs in E. coli BL21(DE3); Ni-chelate affinity co-purification from the soluble extract by the 6His tag of the AtNF-YB; buffer A (10 mM Tris pH 8.0, 400 mM NaCl, 2 mM MgCl2, 5 mM imidazole), eluted with 100 mM imidazole; SDS-PAGE, Coomassie

B1: AtNF-YC3 HFD (AA 55-148), untagged (domain or fragment, UniProt Q9ZVL3 55-148)
chain: TQFKEIEKTTDFKNHSLPLARIKKIMKADEDVRMISAEAPVVFARACEMFILELTLRSWNHTEENKRRTLQKNDIAAAVTRTDIFDFLVDIVPR
How did the binding turn out when B1 was run?
The binding was “binds”.

Results are given in words; binding and its absence hold for the method and conditions named. Binding seen in cells or lysates may run through a third protein. Binding can be weak; no strength is given. Tags and fused reporters may be left off the sequences shown.
